This note sets out measurements from PMC5148607.

By UniProt entry, the sequences of proteins in these tests, tags left out. Where a name states a change or a piece, a line headed by the entry shows the natural chain unless it says otherwise.
UniProt P24610: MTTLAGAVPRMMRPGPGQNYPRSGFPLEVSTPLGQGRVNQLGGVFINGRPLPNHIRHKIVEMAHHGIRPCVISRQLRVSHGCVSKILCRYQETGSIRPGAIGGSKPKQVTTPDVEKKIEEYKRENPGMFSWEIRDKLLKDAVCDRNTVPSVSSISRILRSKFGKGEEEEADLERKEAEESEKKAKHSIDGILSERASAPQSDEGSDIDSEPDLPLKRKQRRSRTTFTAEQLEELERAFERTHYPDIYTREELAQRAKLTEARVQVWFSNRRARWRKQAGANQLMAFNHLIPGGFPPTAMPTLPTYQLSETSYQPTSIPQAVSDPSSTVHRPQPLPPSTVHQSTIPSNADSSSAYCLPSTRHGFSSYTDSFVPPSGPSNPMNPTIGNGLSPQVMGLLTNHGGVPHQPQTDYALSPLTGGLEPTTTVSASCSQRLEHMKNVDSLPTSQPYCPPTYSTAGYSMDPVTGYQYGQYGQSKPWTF
UniProt P28028: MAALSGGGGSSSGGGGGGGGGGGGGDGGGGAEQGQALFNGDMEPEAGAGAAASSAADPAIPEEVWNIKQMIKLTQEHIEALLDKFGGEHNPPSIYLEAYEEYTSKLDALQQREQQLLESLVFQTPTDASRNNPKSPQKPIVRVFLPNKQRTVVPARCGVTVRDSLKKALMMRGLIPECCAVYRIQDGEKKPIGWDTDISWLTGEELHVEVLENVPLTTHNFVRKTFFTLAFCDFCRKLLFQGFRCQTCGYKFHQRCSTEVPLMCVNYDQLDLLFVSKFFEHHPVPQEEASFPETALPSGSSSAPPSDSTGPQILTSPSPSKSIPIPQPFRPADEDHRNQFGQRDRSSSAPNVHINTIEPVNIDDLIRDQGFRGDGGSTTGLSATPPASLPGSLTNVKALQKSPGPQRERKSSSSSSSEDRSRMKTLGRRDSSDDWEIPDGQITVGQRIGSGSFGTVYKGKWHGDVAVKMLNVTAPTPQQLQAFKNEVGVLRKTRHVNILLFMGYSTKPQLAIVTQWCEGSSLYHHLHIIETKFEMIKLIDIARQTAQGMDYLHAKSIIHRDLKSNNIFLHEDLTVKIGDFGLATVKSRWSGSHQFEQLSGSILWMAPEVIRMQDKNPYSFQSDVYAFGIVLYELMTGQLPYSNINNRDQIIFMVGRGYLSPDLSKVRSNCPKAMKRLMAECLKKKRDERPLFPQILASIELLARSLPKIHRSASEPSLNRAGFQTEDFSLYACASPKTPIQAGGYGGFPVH
UniProt P15056: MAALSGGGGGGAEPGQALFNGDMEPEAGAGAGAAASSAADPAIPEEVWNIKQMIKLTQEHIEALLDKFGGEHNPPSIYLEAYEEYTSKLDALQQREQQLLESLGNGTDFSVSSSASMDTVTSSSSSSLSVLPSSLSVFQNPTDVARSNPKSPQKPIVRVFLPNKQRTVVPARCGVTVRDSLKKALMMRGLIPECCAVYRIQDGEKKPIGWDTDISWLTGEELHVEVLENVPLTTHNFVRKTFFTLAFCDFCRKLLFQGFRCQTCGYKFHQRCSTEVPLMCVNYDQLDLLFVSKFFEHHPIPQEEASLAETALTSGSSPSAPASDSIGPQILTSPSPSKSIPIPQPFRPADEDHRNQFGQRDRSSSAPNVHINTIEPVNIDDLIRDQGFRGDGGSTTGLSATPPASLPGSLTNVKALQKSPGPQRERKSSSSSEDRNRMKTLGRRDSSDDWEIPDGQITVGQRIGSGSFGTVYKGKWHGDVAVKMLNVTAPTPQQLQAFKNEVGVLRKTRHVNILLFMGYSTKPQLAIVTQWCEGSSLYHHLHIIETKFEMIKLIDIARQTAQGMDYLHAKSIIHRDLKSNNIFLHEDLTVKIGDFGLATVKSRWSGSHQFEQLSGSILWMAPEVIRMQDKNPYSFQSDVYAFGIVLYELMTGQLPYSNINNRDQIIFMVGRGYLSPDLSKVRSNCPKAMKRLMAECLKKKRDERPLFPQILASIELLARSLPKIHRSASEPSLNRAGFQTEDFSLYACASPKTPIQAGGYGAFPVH

No constants are given. Whether binding was seen depends on the method and setting. In cells and extracts the contact can be indirect. Some binding calls cover weakened binding; strength is not graded here.

For assay [1], the target named is PAX3 (endogenous, mouse) (mouse (endogenous in E10.5 limb buds and C2C12)) (UniProt P24610). The assay can be described thus: co-IP; E10.5 (and E12.5) wild type mouse limb buds; BRAF antibodies for IP and PAX3 antibodies for Western blot, or vice versa; endogenous proteins. In general terms: In western blotting, separated proteins are transferred to a membrane and probed.

Assay [2] has the same target. As to the kind of experiment: co-IP; endogenous PAX3 immunoprecipitated from C2C12 cells transfected with WT Braf, CA Braf (V600E) or vector; Western blot.
Assay [3] has the same target. The assay can be described thus: co-IP; immunoprecipitation from the nuclear fraction only of migrating C2C12 cells transfected with WT Braf, CA Braf (V600E) or HA-Pax3; Western blot.
For assay [4] the target is unchanged. The assay can be described thus: cross-linking; NHS-diazirine cross-linker (SD) in C2C12 cells transfected with CA Braf (V600E), then immunoprecipitation with BRAF or PAX3 antibodies and Western blot; cross-linker cleaved with DTT as control.
For the next assay, the target named is GST-PAX3 (UniProt P24610). As to the kind of experiment: pull-down; lysates of C2C12 cells transfected with wild type Braf or CA Braf (V600E) incubated overnight with PAX3-GST fusion protein coupled to glutathione-Sepharose beads; Western blot; only the target purified.
Assay [5] has as its target BRAF (endogenous, mouse) (mouse (endogenous in E10.5 limb buds and C2C12)) (UniProt P28028). The assay can be described thus: co-IP; E10.5 (and E12.5) wild type mouse limb buds; BRAF antibodies for IP and PAX3 antibodies for Western blot, or vice versa; endogenous proteins.

Consider “BRAF (endogenous, mouse) (from UniProt P28028 1-751) (enzyme)”, for which the binding result in assay [1] is recorded as “binds”.
With “CA BRAF (V600E) (transfected, pEFm-V600E) (from UniProt P15056 1-766) (enzyme)”, the binding entry (in assay [2]; in assay [3]; in assay [4]; with GST-PAX3) was “binds” each time.
Take “PAX3 (endogenous, mouse) (from UniProt P24610 1-479)”: the binding entry in assay [5] is given as “binds”.
Turning to “WT BRAF (transfected, pEFm-BRAF) (from UniProt P15056 1-766) (enzyme)”, the binding entry (in assay [2]; in assay [3]; with GST-PAX3) was “binds” in each case.
